From US20190015518A1, “DRUG DELIVERY COMPOSITIONS AND METHODS” (priority 2016, published 2019)

System: hyaluronidase (HAdase, from bovine testes, type I-S)
Assay: Degradation by hyaluronidase (SEC)
Format: biochemical

Row | Substance | degradation in the presence of HAdase (24 hours, pH 6.4, 37° C.) | HAdase specificity and degradability | molecular weight after HAdase digestion (t=24 h (35 kD at t=0 h))
1 | HA-cis-[Pt(NH3)2(N^α-Acetyl-L-Lysine)] [HA-Lys-Pt] | maintained similar rates of degradation | – | –
2 | HA-cis-[Pt(NH3)2(Nα-AcetylGluH)] [HA-GluH-Pt] | – | maintained HAdase specificity and degradability | 27 kD
